From patent US10031129B2, “G-protein coupled receptor polypeptides involved in sensory transduction” (The Regents of the University of California, priority 1998, dated 2018)
At least one structure is not confirmed: it was looked up by name or label, or the drawing left a doubt.

Biological target: T1, GPCR-B4 (Rattus norvegicus, UniProt Q9Z0R7)
T1 construct: expressed in transfected cells; host or cells: HEK-293 line expressing SV40 T-antigen; pEAK-10 episomal vector (Edge Biosystems) with EF1a-[B4-GPCR] construct; TK-Gα15
T1 sequence (Q9Z0R7 20-843): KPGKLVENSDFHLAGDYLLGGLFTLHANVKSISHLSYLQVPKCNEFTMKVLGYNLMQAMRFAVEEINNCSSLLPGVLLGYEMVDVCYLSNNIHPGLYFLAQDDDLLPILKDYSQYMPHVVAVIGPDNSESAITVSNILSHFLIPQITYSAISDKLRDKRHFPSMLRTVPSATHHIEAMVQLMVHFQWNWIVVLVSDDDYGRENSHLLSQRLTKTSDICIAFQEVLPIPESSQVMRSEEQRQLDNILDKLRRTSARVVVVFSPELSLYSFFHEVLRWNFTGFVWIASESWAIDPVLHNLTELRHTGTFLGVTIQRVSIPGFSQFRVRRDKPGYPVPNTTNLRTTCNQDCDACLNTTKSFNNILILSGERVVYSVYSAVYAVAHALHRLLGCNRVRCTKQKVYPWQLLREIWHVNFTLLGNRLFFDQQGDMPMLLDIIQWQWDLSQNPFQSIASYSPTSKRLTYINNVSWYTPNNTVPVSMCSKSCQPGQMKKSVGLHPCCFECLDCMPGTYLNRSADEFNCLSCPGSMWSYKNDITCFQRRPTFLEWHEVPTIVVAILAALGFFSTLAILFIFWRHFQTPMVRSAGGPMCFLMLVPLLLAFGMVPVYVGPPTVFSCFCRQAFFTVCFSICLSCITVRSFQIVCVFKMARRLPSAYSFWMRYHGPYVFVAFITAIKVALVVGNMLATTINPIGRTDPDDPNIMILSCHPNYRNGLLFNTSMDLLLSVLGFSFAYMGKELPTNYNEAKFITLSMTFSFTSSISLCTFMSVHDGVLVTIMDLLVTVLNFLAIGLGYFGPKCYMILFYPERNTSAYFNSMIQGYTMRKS
Experiment: ligand-induced changes in [Ca2+]i in HEK-293 cells expressing B4/Gα15 (fluorescent Ca2+-indicator dyes, fluorometric imaging)
Type: cell-based
Conditions: cells expressing B4/Gα15 or B4/Gα15/γ-opiod; physiologically relevant concentrations
Excerpt: To determine the ligand selectivity of GPCR-B4, expression in heterologous cells was used. One issue for GPCR expression in heterologous cells is determining how to couple the GPCR to a G-protein and an appropriate signaling pathway. In this example, the G-protein subunit Gα15 was used, which promiscuously couples a wide range of GPCRs to the phospholipase C-mediated signaling pathway (Offermans & Simon, J. Biol. Chem. 270:15175-15180 (1995)). Consequently, receptor activity can be effectively measured by recording ligand-induced changes in [Ca^2+]i using fluorescent Ca^2+-indicator dyes and fluorometric imaging.
To insure expression of GPCR-B4 in the plasma membrane, a variety of cell lines and expression vectors were tested. […] An HEK-293 line expressing SV40 T-antigen was co-transfected with a TK-Gα15, CMV-γ-opiod and a pEAK-10 episomal vector (Edge Biosystems) containing a EF1a-[B4-GPCR]construct. Transfection efficiencies were determined using CMV-GFP constructs.

SMILES: NC(=S)Nc1ccccc1 [PTC, phenylthiocarbamide]
- concentrations at which the B4 receptor dependent activity occurs: 300 μM-5 mM
